Measured values: PubChem BioAssay AID256 (DTP/NCI, 2004)
The list is a part of this screen's results and no random one: it gathers tests that were run many times, whatever their T/C, doses with no T/C, and many T/C values between a quarter and a half above the control. Other doses and runs of a compound stand elsewhere. T/C gives the treated animals as a percentage of the vehicle group. Some entries give survivors of the animals treated and no T/C: the source files T/C as zero there, which appears to mark a toxic dose or a test without result, not a measured value. Some survivor counts are full or nearly so, which does not show that the dose was tolerated: the source hardly ever lists a survival T/C far under the control, and the zero likely stands for such cases as well. Survivors were counted at the toxicity check, usually on the fifth day, unless a day is given; later deaths do not show. Schedule codes are those of the source, read here as Q, the interval in days (D) or hours (H), X, the number of doses. Where survival is the endpoint, this PubChem deposit counts one and a half times the control or more as active, and values a quarter to a half above the control carry no call in these data; other NCI protocols may use other cut-offs.

Test system: CD2F1 mice, L1210 leukemia ip, survival T/C
Test: NCI In Vivo Anticancer Drug Screen. Data for tumor model L1210 Leukemia (intraperitoneal) in CD2F1 (CDF1) mice
Conditions: higher T/C = longer survival
Outline: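 Vehicle-treated tumor-bearing mice served as controls (C) for compound-treated mice (T). Reported figure is T divided by C.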

[1] = T/C endpoint: mean survival time, dose: 200.0 mg/kg/injection, schedule: Q04DX003 (ip), vehicle: saline
[2] = T/C endpoint: mean survival time, dose: 400.0 mg/kg/injection, schedule: Q04DX003 (ip), vehicle: saline
[3] = T/C endpoint: mean survival time, dose: 400.0 mg/kg/injection, schedule: Q01DX009 (ip), vehicle: other
[4] = T/C endpoint: mean survival time, dose: 400.0 mg/kg/injection, schedule: Q01DX009 (ip), vehicle: saline with Tween-80
[5] = T/C endpoint: mean survival time, dose: 50.0 mg/kg/injection, schedule: Q01DX009 (ip), vehicle: saline with Tween-80
[6] = T/C endpoint: mean survival time, dose: 100.0 mg/kg/injection, schedule: Q01DX009 (ip), vehicle: saline with Tween-80
[7] = T/C endpoint: mean survival time, dose: 200.0 mg/kg/injection, schedule: Q04DX003 (ip), vehicle: saline with Tween-80
[8] = T/C endpoint: mean survival time, dose: 400.0 mg/kg/injection, schedule: Q04DX003 (ip), vehicle: saline with Tween-80
[9] = T/C endpoint: mean survival time, dose: 400.0 mg/kg/injection, schedule: Q04DX003 (ip), vehicle: other
[10] = T/C endpoint: mean survival time, dose: 400.0 mg/kg/injection, schedule: Q01DX001 (ip), vehicle: saline with Tween-80
[11] = T/C endpoint: mean survival time, dose: 400.0 mg/kg/injection, schedule: Q01DX001 (ip), vehicle: saline
[12] = T/C endpoint: mean survival time, dose: 100.0 mg/kg/injection, schedule: Q04DX003 (ip), vehicle: saline
[13] = T/C endpoint: mean survival time, dose: 200.0 mg/kg/injection, schedule: Q01DX001 (ip), vehicle: saline with Tween-80
[14] = T/C endpoint: mean survival time, dose: 200.0 mg/kg/injection, schedule: Q01DX009 (ip), vehicle: saline with Tween-80

SMILES: Oc1ccccc1C=NCC[N-]CCN=Cc1ccccc1O.[Co]
- survivor count [1]: 2 of 6
- survivor count [2]: 0 of 6

SMILES: O=C1NC(CCl)(CCl)CO1
- survivor count (T/C endpoint: mean survival time, dose: 75.0 mg/kg/injection, schedule: Q01DX001 (ip), vehicle: saline): 0 of 6
- survivor count (T/C endpoint: mean survival time, dose: 150.0 mg/kg/injection, schedule: Q01DX001 (ip), vehicle: saline): 0 of 6
- survivor count (T/C endpoint: mean survival time, dose: 300.0 mg/kg/injection, schedule: Q01DX001 (ip), vehicle: saline): 0 of 6

SMILES: c1ccc2ncccc2c1
- survivor count [3]: 0 of 6

SMILES: CCN(C(=O)c1ccccc1Cl)C(c1ccco1)P(=O)(c1ccccc1)c1ccccc1 (stereo not drawn)
- survivor count [4]: 3 of 3

SMILES: CCCCCCCCCc1ccc(OCCOCCOCCOCCOCCOCCOCCOCCOCCOC(C)N2CCCC2=O)cc1 (stereo not drawn)
- survivor count [5]: 2 of 6
- survivor count [6]: 0 of 6
- survivor count [7]: 0 of 6

SMILES: CC(=O)Nc1ccc(Cc2cc(=O)[nH]c(=O)[nH]2)cc1
- survivor count (T/C endpoint: mean survival time, dose: 75.0 mg/kg/injection, schedule: Q01DX001 (ip), vehicle: saline with Tween-80): 3 of 6
- survivor count (T/C endpoint: mean survival time, dose: 150.0 mg/kg/injection, schedule: Q01DX001 (ip), vehicle: saline with Tween-80): 0 of 6
- survivor count (T/C endpoint: mean survival time, dose: 300.0 mg/kg/injection, schedule: Q01DX001 (ip), vehicle: saline with Tween-80): 3 of 6

SMILES: CN1CCC(CNC(=O)CCCCCCCCC(=O)NCC2(c3ccccc3)CCN(C)CC2)(c2ccccc2)CC1
- survivor count (T/C endpoint: mean survival time, dose: 5.0 mg/kg/injection, schedule: Q04DX003 (ip), vehicle: saline with Tween-80): 6 of 6

SMILES: CSc1ccc(NC(=O)CCl)cc1
- survivor count [7]: 3 of 6
- survivor count [8]: 0 of 6

SMILES: O=C(O)CC(Sc1ccccc1)c1ccccc1 (stereo not drawn)
- survivor count [9]: 6 of 6

SMILES: CN(C)C(=O)c1ccc(Cl)c(Cl)c1
- survivor count [4]: 6 of 6

SMILES: O=Cc1ccc(N=Nc2c(S(=O)(=O)O)cc3cc(S(=O)(=O)O)cc(O)c3c2O)cc1
- survivor count [7]: 3 of 6
- survivor count [4]: 3 of 6

SMILES: COC(COC(=O)N1CCN(C=O)CC1)C1=C(N2CC2)C(=O)C(C)=C(N2CC2)C1=O (stereo not drawn)
- T/C (T/C endpoint: median survival time, dose: 0.75 mg/kg/injection, schedule: Q01DX005 (ip), vehicle: saline): 126 % of control
- T/C (T/C endpoint: median survival time, dose: 1.5 mg/kg/injection, schedule: Q01DX005 (ip), vehicle: saline): 135 % of control
- T/C (T/C endpoint: median survival time, dose: 2.16 mg/kg/injection, schedule: Q01DX005 (ip), vehicle: saline): 140 % of control
- survivor count (T/C endpoint: median survival time, dose: 10.0 mg/kg/injection, schedule: Q01DX005 (ip), vehicle: saline): 6 of 6
- survivor count (T/C endpoint: median survival time, dose: 16.67 mg/kg/injection, schedule: Q01DX005 (ip), vehicle: saline): 4 of 6

SMILES: CNCCNc1ccc(NCCNC)c2c1C(=O)c1ccccc1C2=O
- T/C (T/C endpoint: mean survival time, dose: 1.0 mg/kg/injection, schedule: Q01DX009 (ip), vehicle: acid diluted with saline): 134 % of control
- T/C (T/C endpoint: mean survival time, dose: 2.0 mg/kg/injection, schedule: Q01DX009 (ip), vehicle: acid diluted with saline, evaluated on day 30): 146 % of control
- T/C (T/C endpoint: mean survival time, dose: 2.0 mg/kg/injection, schedule: Q01DX009 (ip), vehicle: acid diluted with saline, evaluated on day 35): 134 % of control
- T/C (T/C endpoint: mean survival time, dose: 16.0 mg/kg/injection, schedule: Q01DX009 (ip), vehicle: acid diluted with saline): 140 % of control
- survivor count (T/C endpoint: mean survival time, dose: 32.0 mg/kg/injection, schedule: Q01DX009 (ip), vehicle: acid diluted with saline): 5 of 6

SMILES: CC(C)C(O)C(C)(C)c1nc2ccccc2[nH]1 (stereo not drawn)
- survivor count [10]: 0 of 3

SMILES: O=C1NC(=O)c2ccc3c4c(ccc1c24)C(=O)NC3=O
- survivor count (T/C endpoint: mean survival time, dose: 125.0 mg/kg/injection, schedule: Q01DX009 (ip), vehicle: saline with Tween-80): 3 of 6
- survivor count (T/C endpoint: mean survival time, dose: 250.0 mg/kg/injection, schedule: Q01DX009 (ip), vehicle: saline with Tween-80): 2 of 6

SMILES: CCO/C=C1\SC(=S)N(c2ccccc2C)C1=O
- survivor count [4]: 4 of 6

SMILES: CCCCCCC[CH2][Sn]1([CH2]CCCCCCC)[O]OC(c2ccccc2)[O]1 (stereo not drawn)
- survivor count (T/C endpoint: mean survival time, dose: 25.0 mg/kg/injection, schedule: Q04DX002 (ip), vehicle: saline with Tween-80): 3 of 3
- survivor count (T/C endpoint: mean survival time, dose: 100.0 mg/kg/injection, schedule: Q04DX002 (ip), vehicle: saline with Tween-80): 0 of 3

SMILES: CC(C)OC(=O)Nc1cc(F)ccc1F
- survivor count [3]: 6 of 6

SMILES: CCN1CCC(CC)(CN2c3ccccc3Sc3ccc(Cl)cc32)C1 (stereo not drawn)
- survivor count [2]: 0 of 6

SMILES: c1ccc(CCNCc2ccccn2)nc1
- survivor count (T/C endpoint: mean survival time, dose: 200.0 mg/kg/injection, schedule: Q01DX001 (ip), vehicle: saline): 0 of 6
- survivor count [11]: 0 of 6

SMILES: Cc1cc(Cl)ccc1NC(=O)Nc1c(Oc2ccc(Cl)cc2)ccc(Cl)c1S(=O)(=O)O
- survivor count [11]: 5 of 6

SMILES: N#CC(C(N)=O)C1CC(=O)Oc2ccccc21 (stereo not drawn)
- survivor count (T/C endpoint: mean survival time, dose: 400.0 mg/kg/injection, schedule: Q04DX003 (ip), vehicle: Klucel (hydroxypropylcellulose) (HPC)): 6 of 6

SMILES: CCCCn1c2ccccc2c2ccccc21
- survivor count [7]: 6 of 6

SMILES: Cc1cc2c(cc1C)C(=O)c1ccccc1C2=O
- survivor count (T/C endpoint: mean survival time, dose: 200.0 mg/kg/injection, schedule: Q01DX009 (ip), vehicle: saline): 2 of 6
- survivor count [2]: 0 of 6

SMILES: C[N+]1(Cc2ccccc2)C2CCC1C(CCl)C(O)C2 (stereo not drawn)
- survivor count [12]: 0 of 3
- survivor count [1]: 0 of 3
- survivor count [2]: 0 of 3

SMILES: O=C(O)c1cc(CBr)cc(CBr)c1
- survivor count (T/C endpoint: mean survival time, dose: 100.0 mg/kg/injection, schedule: Q01DX001 (ip), vehicle: saline with Tween-80): 0 of 6
- survivor count [13]: 0 of 6
- survivor count [10]: 0 of 6

SMILES: CCCCCCCCN(C)N=Nc1ccccc1
- T/C (T/C endpoint: mean survival time, dose: 118.0 mg/kg/injection, schedule: Q01DX009 (ip), vehicle: Klucel (hydroxypropylcellulose) (HPC)): 128 % of control
- survivor count (T/C endpoint: mean survival time, dose: 400.0 mg/kg/injection, schedule: Q01DX009 (ip), vehicle: Klucel (hydroxypropylcellulose) (HPC)): 3 of 6

SMILES: CN(C)C1C(CO)C(CO)C1(C)C (stereo not drawn)
- survivor count (T/C endpoint: mean survival time, dose: 800.0 mg/kg/injection, schedule: Q01DX001 (ip), vehicle: saline with Tween-80): 0 of 10

SMILES: Clc1cc(Cl)c(C[N+]23CN4CN(CN(C4)C2)C3)cc1Cl
- survivor count [14]: 1 of 6
- survivor count [4]: 0 of 6
- survivor count [8]: 0 of 6

SMILES: CC(=O)OCC1OC(n2cc(F)c(=O)[nH]c2=O)CC1OC(C)=O (stereo not drawn)
- T/C (T/C endpoint: mean survival time, dose: 100.0 mg/kg/injection, schedule: Q01DX009 (ip), vehicle: other): 132 % of control
- T/C [3]: 131 % of control

SMILES: CN=C1N[N+]2=CCCCC2S1 (stereo not drawn)
- survivor count [12]: 1 of 3

SMILES: CCC1C(C)CNC1C (stereo not drawn)
- survivor count [13]: 0 of 6
- survivor count [10]: 0 of 6

SMILES: CCOC(=O)c1c(C)[nH]oc1=O
- survivor count [14]: 1 of 6
- survivor count [4]: 3 of 6

SMILES: CCOC(=O)N[C@H]1CCc2cc(OC)c(OC)c(OC)c2-c2ccc(SC)c(=O)cc21
- survivor count (T/C endpoint: mean survival time, dose: 3.0 mg/kg/injection, schedule: Q01DX009 (ip), vehicle: other): 4 of 6
- survivor count (T/C endpoint: mean survival time, dose: 6.0 mg/kg/injection, schedule: Q01DX009 (ip), vehicle: other): 2 of 6

SMILES: Nc1nc(N)c2c(n1)CCCC2
- survivor count [5]: 1 of 6

SMILES: COc1ccc2ccccc2c1
- survivor count [9]: 6 of 6

SMILES: CCCCCc1cc(/C=C2/N=C(c3ccc[nH]3)C=C2OC)[nH]c1C
- survivor count (T/C endpoint: mean survival time, dose: 8.0 mg/kg/injection, schedule: Q01DX009 (ip), vehicle: saline with Tween-80): 5 of 6

SMILES: CCCCCCCCCCCCCCCCC(C(=O)O)C(O)(CC(=O)O)C(=O)O (stereo not drawn)
- survivor count [6]: 0 of 6
- survivor count [14]: 0 of 6

SMILES: N#CCCN1CCS(=O)(=O)C1=O
- survivor count (T/C endpoint: mean survival time, dose: 75.0 mg/kg/injection, schedule: Q01DX001 (ip), vehicle: other): 2 of 6
- survivor count (T/C endpoint: mean survival time, dose: 300.0 mg/kg/injection, schedule: Q01DX001 (ip), vehicle: other): 0 of 6
